PubChem BioAssay (EPA / NIEHS)
Values joined by “and” are separate entries in the source; they are usually repeats but may differ in a detail not shown here. Identical values can stand only once. This list was built around the results that the source calls inconclusive (neither active nor inactive); the mix of calls is not that of the screen. A potency beside an inconclusive call is a rough fit, not a confirmed value. More than one record can exist for a structure, and the calls need not agree. Active and inactive are the calls of the source. The calls were made as follows: active = hit-call score of the fitted dose curve at least 0.9, where 1 is the maximum; inconclusive = response in the unintended direction; inactive = score below 0.9.

Protein sequences, listed by entry. Tags and fused reporters are not part of them. Lines headed by an entry give the natural chain unless they say otherwise; changes in a name come on top.
UniProt Q98867: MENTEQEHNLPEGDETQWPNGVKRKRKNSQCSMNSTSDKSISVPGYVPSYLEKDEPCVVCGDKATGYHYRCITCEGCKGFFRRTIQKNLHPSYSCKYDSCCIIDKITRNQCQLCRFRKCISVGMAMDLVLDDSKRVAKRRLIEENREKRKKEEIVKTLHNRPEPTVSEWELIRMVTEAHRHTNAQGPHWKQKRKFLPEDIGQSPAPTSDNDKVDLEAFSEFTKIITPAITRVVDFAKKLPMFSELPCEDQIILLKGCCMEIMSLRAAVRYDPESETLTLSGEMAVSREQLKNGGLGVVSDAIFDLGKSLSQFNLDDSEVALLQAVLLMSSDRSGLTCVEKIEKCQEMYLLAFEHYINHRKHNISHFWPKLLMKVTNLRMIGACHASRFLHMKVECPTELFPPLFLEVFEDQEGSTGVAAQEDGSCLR

These compounds were tested against zebrafish Thyroid Hormone Receptor alpha (TRa), thraa (gene 30670) (UniProt Q98867) (assay: ATG_zfTRa_XSP2: Attagene TRANS-FACTORIAL Multi-Species (XSP1) HepG2 Assay for zebrafish Thyroid Hormone Receptor alpha (TRa) (AID 2283832);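 also: actives raise zebrafish TRa-Gal4 reporter transcript above DMSO baseline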).
Procedure: ATG_XSP2_multi-species_TRANS is a cell-based, multiplexed assay created by modifying the existing Attagene TRANS-FACTORIAL system to include a panel of nuclear receptors from some or all the following species: human (Homo sapiens), mouse (Mus musculus), frog (Xenopus laevis), zebrafish (Danio rerio), chicken (Gallus gallus), and turtle (Chrysemys picta). The ECOTOX-FACTORIAL format uses HepG2, a human liver cell line, with measurements taken at 24 hours after chemical dosing in a 24-well plate. Xsp2 included 3 nM 6-alpha-fluorotestosterone and 1.5 nM norgestrel to stimulate the androgen receptor.ATG_zfTRa_XSP2 is one of 29 assay components measured or calculated from the ATG_XSP2_multi-species_TRANS assay. It is designed to make measurements of mRNA induction, a form of inducible reporter, as detected with fluorescence intensity signals by Reverse transcription polymerase chain reaction (RT-PCR) and Capillary electrophoresis technology.The assay endpoint ATG_zfTRa_XSP2 was analyzed in the positive analysis fitting direction relative to DMSO as the negative control and baseline of activity. Using a type of inducible reporter, measures of mRNA for gain-of-signal activity can be used to understand the reporter gene at the transcription factor-level as they relate to the gene TR. Furthermore, this assay endpoint can be referred to as a primary readout, because this assay has produced multiple assay endpoints where this one serves a reporter gene function. To generalize the intended target to other relatable targets, this assay endpoint is annotated to the nuclear receptor intended target family, where the subfamily is non-steroidal.
Human liver HepG2 cells are transiently transfected with multiple reporter transcription units (MRTUs) in 6-well plates using FuGene 6 reagent (Roche; 3 ml FuGene/1 mg DNA). The MRTU constructs are regulated by a cis-regulating element (promoter). […] A major difference between the CIS and TRANS system is that in CIS activities of endogenous TFs are measured, whereas the TRANS assay evaluates changes in activities of exogenous, chimeric NR-Gal4 proteins. […] At the end of 24 hour incubation, total RNA was isolated using TriZol reagent (Invitrogen). The isolated RNA is then reverse-transcribed using oligo(dT) primer and Mo-MLV reverse transcriptase (Invitrogen) with DNAse I (Ambion) treatment for 30 min. The one-tenth of the produced cDNA was amplified by PCR using Taq DNA polymerase (Invitrogen) and two reporter sequence-specific primers. The PCR products were fluorescently labeled by primer extension with 6-arboxyfluorescein (6-FAM) 5'-labeled reporter sequence-specific primer (2 min at 95 C, 20 s at 68 C and 10 min at 72 C) and these products were digested with 5U of HpaI (New England Biolabs) for 2h at 37 C. The fragments were purified using Qiaquick PCR columns (Qiagen), analyzed on an ABI 3130xL genetic analyzer (Applied Biosystems) with peak positions identified by using a set of X-rhodamine (ROX)-labeled MapMarker1000 molecular weight standards (BioVentures). The raw capillary electrophoresis data was processed using Attagraph software (Attagene).

Row | Structure (SMILES) | outcome | AC50
1 | COc1ccc(C(=CC(=O)N2CCOCC2)c2ccc(Cl)cc2)cc1OC | inactive | –
2 | Oc1ccc2ccc3cccc4ccc1c2c34 | – | inconclusive: 11.1 µM
3 | CCCN(CCC)c1c([N+](=O)[O-])cc(S(N)(=O)=O)cc1[N+](=O)[O-] | – | active: 51.1 µM
4 | COCCl | – | inconclusive: 19.4 nM and inconclusive: 24 nM
5 | C=C(C)CN(CC)c1c([N+](=O)[O-])cc(C(F)(F)F)cc1[N+](=O)[O-] | – | inconclusive: 23.7 µM
6 | Oc1c(I)cc(I)cc1I | – | active: 100 µM
7 | Oc1ccc(Cl)cc1Cc1ccccc1 | – | inconclusive: 0.000914 µM
8 | CC(C)Oc1cc(-n2nc(C(C)(C)C)oc2=O)c(Cl)cc1Cl | – | inconclusive: 22.8 µM
9 | CON(C)C(=O)Nc1ccc(Cl)c(Cl)c1 | – | inconclusive: 23.4 µM
10 | C[C@]12CCC(=O)C=C1CC[C@@H]1[C@@H]2CC[C@]2(C)C(=O)CC[C@@H]12 | – | inconclusive: 10 µM and inconclusive: 100 nM
11 | CCC(C)(C)c1ccc(O)cc1 | – | inconclusive: 0.153 µM
12 | C[C@]12CCC(=O)C=C1CC[C@@H]1[C@@H]2CC[C@@]2(C)[C@H]1CC[C@]2(C)O | – | inconclusive: 4.9e-05 µM
13 | O=S1OCC2C(CO1)C1(Cl)C(Cl)=C(Cl)C2(Cl)C1(Cl)Cl (stereo not given) | inactive | –
14 | ClC(Cl)=C(c1ccc(Cl)cc1)c1ccc(Cl)cc1 | – | inconclusive: 10 µM
15 | c1ccc2c(c1)-c1cccc3cccc-2c13 | – | inconclusive: 100 µM
16 | Oc1ccc(C(c2ccc(O)cc2)(C(F)(F)F)C(F)(F)F)cc1 | – | inconclusive: 1 µM
17 | CCC(C)c1ccc(O)cc1 (stereo not given) | inactive | –
18 | CCOCN(C(=O)CCl)c1c(C)cccc1CC | – | inconclusive: 100 µM

Row | Structure (SMILES) | outcome | AC50
19 | [Cl][Sn]([c]1ccccc1)([c]1ccccc1)[c]1ccccc1 | – | active: 0.925 µM
20 | COP(=S)(OC)SCn1nnc2ccccc2c1=O | – | inconclusive: 100 µM
21 | C[C@]12CC[C@H](O)CC1=CC[C@@H]1[C@@H]2CC[C@]2(C)C(=O)CC[C@@H]12 | – | inconclusive: 100 µM
22 | CCCCOC(=O)c1ccccc1C(=O)OCCCC | – | inconclusive: 2.01 µM
23 | C#CCOS(=O)OC1CCCCC1Oc1ccc(C(C)(C)C)cc1 (stereo not given) | – | active: 163 µM
24 | O=c1oc2ccccc2c(O)c1C(CC(O)c1ccc(-c2ccc(Br)cc2)cc1)c1ccccc1 (stereo not given) | – | inconclusive: 31.6 µM
25 | Clc1ccc(C(c2ccccc2Cl)C(Cl)(Cl)Cl)cc1 (stereo not given) | – | inconclusive: 0.00043 µM
26 | CC(C)(C)c1cc(O)ccc1O | – | active: 54.9 µM
27 | CCCCCOC(=O)c1ccccc1C(=O)OCCCCC | – | inconclusive: 0.198 µM
28 | CC(c1ccc(O)cc1)(c1ccc(O)cc1)c1ccc(O)cc1 | – | inconclusive: 1 µM
29 | C=CC1(C)OC(=O)N(c2cc(Cl)cc(Cl)c2)C1=O (stereo not given) | – | active: 25.6 µM
30 | CCC(=O)O[C@H]1CC[C@H]2[C@@H]3CCC4=CC(=O)CC[C@]4(C)[C@H]3CC[C@]12C | – | inconclusive: 0.1 µM
31 | Cc1cc(-c2ccc(N)c(C)c2)ccc1N | inactive | –
32 | C[C@H]1CCCC(=O)CCC/C=C/c2cc(O)cc(O)c2C(=O)O1 | – | inconclusive: 0.1 µM
33 | Oc1cc(Cl)ccc1Oc1ccc(Cl)cc1Cl | inactive | –
34 | O=S(=O)(c1ccc(Cl)cc1)c1ccc(Cl)cc1 | – | inconclusive: 0.00914 µM
35 | CC(C)(c1ccccc1)c1ccc(O)cc1 | – | inconclusive: 0.0344 µM
